Data published in PMC4809290.

Experiments:
[1] = target: T1, TOPLESS (TPL), yeast two-hybrid fusion (Arabidopsis thaliana (accession Col-0)) (UniProt Q94AI7); assay: two-hybrid; Clontech Matchmaker system, yeast strain AH109; vectors derived from pGADT7 and pGBKT7; selective SD-Leu-Trp-His or SD-Leu-Trp-His-Ade media
T1 sequence: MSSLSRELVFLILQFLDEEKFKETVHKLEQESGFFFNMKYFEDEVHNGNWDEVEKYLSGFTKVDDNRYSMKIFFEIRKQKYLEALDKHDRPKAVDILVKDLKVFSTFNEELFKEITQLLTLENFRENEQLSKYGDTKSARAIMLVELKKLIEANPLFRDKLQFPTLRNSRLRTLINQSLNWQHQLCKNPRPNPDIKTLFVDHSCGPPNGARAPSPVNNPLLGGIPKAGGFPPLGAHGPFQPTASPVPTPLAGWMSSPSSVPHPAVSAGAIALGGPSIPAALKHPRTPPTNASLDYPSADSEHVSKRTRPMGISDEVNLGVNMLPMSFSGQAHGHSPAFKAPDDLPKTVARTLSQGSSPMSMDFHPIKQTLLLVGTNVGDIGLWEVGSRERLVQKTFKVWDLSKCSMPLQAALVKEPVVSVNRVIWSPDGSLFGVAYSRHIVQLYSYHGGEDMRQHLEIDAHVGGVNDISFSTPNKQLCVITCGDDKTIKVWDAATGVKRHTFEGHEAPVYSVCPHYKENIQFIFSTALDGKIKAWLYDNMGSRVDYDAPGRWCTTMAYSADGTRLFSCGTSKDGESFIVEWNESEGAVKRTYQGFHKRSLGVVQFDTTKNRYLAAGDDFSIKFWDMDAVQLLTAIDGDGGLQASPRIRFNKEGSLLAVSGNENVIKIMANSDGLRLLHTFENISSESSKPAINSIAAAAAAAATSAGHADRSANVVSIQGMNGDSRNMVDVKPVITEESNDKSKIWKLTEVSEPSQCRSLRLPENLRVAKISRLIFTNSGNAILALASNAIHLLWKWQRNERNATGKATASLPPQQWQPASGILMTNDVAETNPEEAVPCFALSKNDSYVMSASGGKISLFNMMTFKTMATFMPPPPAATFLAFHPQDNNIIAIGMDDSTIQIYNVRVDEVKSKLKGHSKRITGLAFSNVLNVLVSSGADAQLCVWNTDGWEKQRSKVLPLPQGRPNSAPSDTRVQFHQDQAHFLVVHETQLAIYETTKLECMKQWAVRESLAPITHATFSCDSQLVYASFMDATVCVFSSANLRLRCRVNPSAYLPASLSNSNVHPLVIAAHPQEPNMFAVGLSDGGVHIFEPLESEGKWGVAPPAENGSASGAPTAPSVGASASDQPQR

[2] = target: JAZ7 with C-terminal YFP tag (Arabidopsis thaliana (accession Col-0)); assay: co-IP; transient expression in N. benthamiana leaves, harvested 2 d post-inoculation; total protein extracts incubated with GFP-affinity matrix (Chromotek); immunoblots with anti-GFP and anti-c-Myc
[3] = target: JAZ5 with C-terminal YFP tag (Arabidopsis thaliana (accession Col-0)); assay: as above
[4] = target: bHLH017/JA-ASSOCIATED MYC2-LIKE 1 (JAM1), yeast two-hybrid fusion (Arabidopsis thaliana (accession Col-0)); assay: two-hybrid; Clontech Matchmaker system, yeast strain AH109; vectors derived from pGADT7 and pGBKT7; selective SD-Leu-Trp-His or SD-Leu-Trp-His-Ade media

Row | Molecule | binding [1] | other results
1 | JAZ5, yeast two-hybrid fusion (Arabidopsis thaliana (accession Col-0)) | binds | 
2 | JAZ7 (JASMONATE ZIM-domain protein 7), yeast two-hybrid fusion (Arabidopsis thaliana (accession Col-0)) | binds | 
3 | JAZ7mEAR (JAZ7 with a mutated EAR motif), yeast two-hybrid fusion (Arabidopsis thaliana (accession Col-0)) | no binding | 
4 | TOPLESS (TPL) with C-terminal 4xMyc tag (protein, UniProt Q94AI7 1-1131) MSSLSRELVFLILQFLDEEKFKETVHKLEQESGFFFNMKYFEDEVHNGNWDEVEKYLSGFTKVDDNRYSMKIFFEIRKQKYLEALDKHDRPKAVDILVKDLKVFSTFNEELFKEITQLLTLENFRENEQLSKYGDTKSARAIMLVELKKLIEANPLFRDKLQFPTLRNSRLRTLINQSLNWQHQLCKNPRPNPDIKTLFVDHSCGPPNGARAPSPVNNPLLGGIPKAGGFPPLGAHGPFQPTASPVPTPLAGWMSSPSSVPHPAVSAGAIALGGPSIPAALKHPRTPPTNASLDYPSADSEHVSKRTRPMGISDEVNLGVNMLPMSFSGQAHGHSPAFKAPDDLPKTVARTLSQGSSPMSMDFHPIKQTLLLVGTNVGDIGLWEVGSRERLVQKTFKVWDLSKCSMPLQAALVKEPVVSVNRVIWSPDGSLFGVAYSRHIVQLYSYHGGEDMRQHLEIDAHVGGVNDISFSTPNKQLCVITCGDDKTIKVWDAATGVKRHTFEGHEAPVYSVCPHYKENIQFIFSTALDGKIKAWLYDNMGSRVDYDAPGRWCTTMAYSADGTRLFSCGTSKDGESFIVEWNESEGAVKRTYQGFHKRSLGVVQFDTTKNRYLAAGDDFSIKFWDMDAVQLLTAIDGDGGLQASPRIRFNKEGSLLAVSGNENVIKIMANSDGLRLLHTFENISSESSKPAINSIAAAAAAAATSAGHADRSANVVSIQGMNGDSRNMVDVKPVITEESNDKSKIWKLTEVSEPSQCRSLRLPENLRVAKISRLIFTNSGNAILALASNAIHLLWKWQRNERNATGKATASLPPQQWQPASGILMTNDVAETNPEEAVPCFALSKNDSYVMSASGGKISLFNMMTFKTMATFMPPPPAATFLAFHPQDNNIIAIGMDDSTIQIYNVRVDEVKSKLKGHSKRITGLAFSNVLNVLVSSGADAQLCVWNTDGWEKQRSKVLPLPQGRPNSAPSDTRVQFHQDQAHFLVVHETQLAIYETTKLECMKQWAVRESLAPITHATFSCDSQLVYASFMDATVCVFSSANLRLRCRVNPSAYLPASLSNSNVHPLVIAAHPQEPNMFAVGLSDGGVHIFEPLESEGKWGVAPPAENGSASGAPTAPSVGASASDQPQR |  | binding [2]: binds; binding [3]: binds
5 | JAZ8, yeast two-hybrid fusion (protein, UniProt Q8LBM2 1-131) MKLQQNCDLELRLFPTSYDSDSSDTTSVVESTSSGNPQPNEESQRITIFYNGKMCFSSDVTHLQARSIISIASREMKTKSSSNGSDPPNKSTSFHHNQLPNPKASMKKSLQSFLQKRKIRIQATSPYHSRR |  | binding [4]: binds

These are yes or no findings as the source states them, for the method shown. Binding calls can cover weak binding; strength is not graded here. Sequences can lack the tags named with a protein. For part of these data: In cells and extracts the contact can be indirect.
